# ± gives the standard deviation. This is a selection; strong and weak results do not stand in their true shares. Many entries were measured with a wide error. This is one part of the list.
# Tests used:
# [1] = test system: MILI (PIWIL2) piRISC loaded with L1MC piRNA (26 nt); experiment: pre-steady-state target cleavage rate (min^-1); higher = faster piRNA-guided slicing of the target; conditions: guide: L1MC piRNA 5'p-UAACUAAAUACUAUGCAAGCUGUAGG
# Summary of the method: (§1)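 Using HEPES–potassium acetate buffer at 33 °C, 1 nM active affinity-purified piRISC with a single synthetic guide was mixed with 0.1 nM transcribed, DNA-blocked target RNA library for 0–8 or 0–960 min, with or without 500 nM GTSF1 partner protein. Uncleaved targets were sequenced and normalised to depth and to weakly complementary targets, and three trials were pooled with k3 capped at 0.0001 min^-1. A burst-and-steady-state fit gave the pre-steady-state cleavage rate.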
# [2] = test system: EfPiwi piRISC loaded with L1MC piRNA (26 nt); experiment: pre-steady-state target cleavage rate (min^-1); guide: L1MC piRNA 5'p-UAACUAAAUACUAUGCAAGCUGUAGG; MIWI and MILI are mouse PIWI proteins and EfPiwi is from a freshwater sponge; tags in brackets are library labels; higher = faster piRNA-guided slicing of the target
# Summary of the method: as §1
# [3] = auxiliary factor: none (no GTSF1)
# [4] = auxiliary factor: 500 nM Ephydatia muelleri Gtsf1
# [5] = auxiliary factor: none (no Gtsf1)
# [6] = auxiliary factor: 500 nM mouse GTSF1
Sequence,"pre-steady-state target cleavage rate [1, 3]","pre-steady-state target cleavage rate [2, 4]","pre-steady-state target cleavage rate [2, 5]","pre-steady-state target cleavage rate [1, 6]"
UCCUGGAUGACCUUGCAUAGUAAUUAGUUA,0.00314 ± 0.0032,0.00204 ± 0.0029,0.00116 ± 0.0096,–
UCCUGGAACAGCUUGCUUAGUAUUAAGUUA,0.00193 ± 0.003,0.00237 ± 0.002,0.000898 ± 0.0096,–
UCCUGGAACAGCUUGCAUAGUAUUUACAAA,0.0014 ± 0.005,0.00238 ± 0.0019,0.000697 ± 0.01,–
UCCUGGAUGUCGAAGGAAAGUAUUUAGUUA,–,< 0.0001,0.000207 ± 0.027,0.000384 ± 0.018
UCCUGGAACUGCUUGCAUACUAUUUAGUUA,0.00252 ± 0.0029,0.0046 ± 0.0019,0.000938 ± 0.0098,–
UCCUGGAUGUGCUUGCAUAGUAUUAAGUAA,0.00121 ± 0.0058,0.00114 ± 0.0055,0.000537 ± 0.018,–
UCCUGGAACAGCUUGCAUAGUAAUUAGAUA,0.00151 ± 0.0037,0.00318 ± 0.0015,0.000276 ± 0.01,–
UCCUGGAACAGCUUGCAUAGAAUUUAGAUA,0.000883 ± 0.0053,0.00187 ± 0.0015,0.000241 ± 0.033,–
UCCUGGAUGUGCUUGCAUAGUAUUUAGUGA,0.00336 ± 0.0035,0.00187 ± 0.0035,0.000547 ± 0.016,–
UCCUGCUACUGCUUGCAUAGUAUUUACAAA,0.00101 ± 0.0061,0.00262 ± 0.0024,0.000317 ± 0.016,–
UCCUGGAUGAGCUUGCAUAGUAAAUAGUUA,0.00227 ± 0.0033,0.00329 ± 0.0025,0.00114 ± 0.0096,–
UCCUGGAUCAGCUUGCAUAGUAUUAUAGUUA,–,0.0796 ± 0.024,0.00759 ± 0.0041,0.283 ± 0.022
UCCUGGAUCAGCUUGCAUAGUAAUUACUUA,0.00137 ± 0.0044,0.00233 ± 0.0022,0.00086 ± 0.0093,–
UCCUGGUACAGCUUGCAUAGUAAUUUGUUA,0.00207 ± 0.004,0.00282 ± 0.0025,0.000531 ± 0.018,–
UCCUGGAACAGCUUGCAUUGUAUUUACUUA,0.00207 ± 0.0035,0.00192 ± 0.0028,0.000367 ± 0.022,–
UCCUCCUACAGCUUGCAUAGAAUUUAGAAA,0.000849 ± 0.0068,0.00385 ± 0.0019,0.000377 ± 0.012,–
UCCUGCUACAGCUUGCUUAGUAUUUAGAUA,0.00112 ± 0.0051,0.00495 ± 0.0028,0.000297 ± 0.023,–
UCCUGGAUGUGCUUGCAUAGUAUUUACAUA,0.001 ± 0.0061,0.00301 ± 0.0037,0.000341 ± 0.032,–
UCCUGGUACAGCUUGCAUACUAUAUAGUUA,0.00129 ± 0.006,0.000911 ± 0.0041,0.000363 ± 0.019,–

Sequence,"pre-steady-state target cleavage rate [1, 3]","pre-steady-state target cleavage rate [2, 4]","pre-steady-state target cleavage rate [2, 5]","pre-steady-state target cleavage rate [1, 6]"
UCCUCCUACAGCUUGCAAAGUAUUUAGAAA,0.00105 ± 0.0044,0.00344 ± 0.0017,0.000627 ± 0.012,–
UCCUGGUACAGCUUGCAUAGUAUUGUAGUUA,0.00296 ± 0.004,0.00235 ± 0.0028,0.000331 ± 0.028,–
UCCUGGAUGAGCUUGCAUUGUAUUUUGUUA,0.00276 ± 0.0035,0.00107 ± 0.0048,0.000237 ± 0.043,–
UCCUGGAUGAGCUUGCAUUGUAUUUAGAAA,0.00096 ± 0.0075,0.00384 ± 0.0021,0.000586 ± 0.013,–
UCCUGGAUGAGCUUGCAUACUAUUUACUUA,0.000223 ± 0.019,0.00156 ± 0.0025,0.000158 ± 0.045,–
UCCUGCUACAGCUUGCAUAGAUAAAUCAAA [g11:g25:cont:t1A],0.000161 ± 0.023,0.000899 ± 0.0062,0.000316 ± 0.02,–
UCCUGGAUCAGCUUGCAUACUAUUUUGUUA,0.000785 ± 0.0089,0.00138 ± 0.0037,0.000238 ± 0.036,–
UCCUGCUUGAGCUUGCAUAGUAUUUUCAAA,0.000819 ± 0.007,0.00207 ± 0.0018,0.000229 ± 0.031,–
UCCUGCUACAGAUUGCAUAGUAUUUAGUUA,–,0.0138 ± 0.0034,0.000842 ± 0.009,0.299 ± 0.015
UCCUGGUACAGCUUGCAUAGUAUUUUCUUA,0.0021 ± 0.0048,0.00532 ± 0.0034,0.000517 ± 0.038,–
UCCUGGAUGUGCUUGCAUAGUAUAAUGUUA,0.00136 ± 0.0057,0.000537 ± 0.0088,0.000343 ± 0.023,–
UCCUGGAUGUGCUUGCAUAGUAUGUAGUUA,0.00322 ± 0.0035,0.00399 ± 0.0022,0.00121 ± 0.0079,–
UCCUGGAUGUCGAACGUAUCUAAUUUGUUA,0.000176 ± 0.016,0.000535 ± 0.011,0.000163 ± 0.026,–
UCCUGGUACAGCUUGCAUAGAAUUUACUUA,0.00217 ± 0.0062,0.00101 ± 0.0035,< 0.0001,–
UCCUGGAUCAGCUUGCAUAGAAUUUUGUUA,0.00106 ± 0.0043,0.00126 ± 0.0023,0.000173 ± 0.045,–
UCCUGGUACAGCUUGCAUACUAUUUAGAUA,0.00162 ± 0.0057,0.00109 ± 0.0069,0.000201 ± 0.042,–
UCCUGGAUCAGCUUGCAUAGUAUUAUCAAA,0.000992 ± 0.0064,0.000959 ± 0.0039,0.000194 ± 0.036,–
UCCUGGAUGUCGAUGCAUAGCAUUUAGUUA,0.00179 ± 0.0029,0.000498 ± 0.0067,0.000428 ± 0.01,–
UCCUGGAACAGCUUGCAUUGUAUUAAGUUA,0.00186 ± 0.0032,0.00239 ± 0.0026,0.000838 ± 0.011,–

# A run of entries from further up, for reference:
Sequence,"pre-steady-state target cleavage rate [1, 3]","pre-steady-state target cleavage rate [2, 4]","pre-steady-state target cleavage rate [2, 5]","pre-steady-state target cleavage rate [1, 6]"
UCCUGGUACAGCUUGCAUAGUAUUGUAGUUA,0.00296 ± 0.004,0.00235 ± 0.0028,0.000331 ± 0.028,–
UCCUGGAUGAGCUUGCAUUGUAUUUUGUUA,0.00276 ± 0.0035,0.00107 ± 0.0048,0.000237 ± 0.043,–
UCCUGGAUGAGCUUGCAUUGUAUUUAGAAA,0.00096 ± 0.0075,0.00384 ± 0.0021,0.000586 ± 0.013,–
UCCUGGAUGAGCUUGCAUACUAUUUACUUA,0.000223 ± 0.019,0.00156 ± 0.0025,0.000158 ± 0.045,–
UCCUGCUACAGCUUGCAUAGAUAAAUCAAA [g11:g25:cont:t1A],0.000161 ± 0.023,0.000899 ± 0.0062,0.000316 ± 0.02,–
UCCUGGAUCAGCUUGCAUACUAUUUUGUUA,0.000785 ± 0.0089,0.00138 ± 0.0037,0.000238 ± 0.036,–
UCCUGCUUGAGCUUGCAUAGUAUUUUCAAA,0.000819 ± 0.007,0.00207 ± 0.0018,0.000229 ± 0.031,–
UCCUGCUACAGAUUGCAUAGUAUUUAGUUA,–,0.0138 ± 0.0034,0.000842 ± 0.009,0.299 ± 0.015
UCCUGGUACAGCUUGCAUAGUAUUUUCUUA,0.0021 ± 0.0048,0.00532 ± 0.0034,0.000517 ± 0.038,–
UCCUGGAUGUGCUUGCAUAGUAUAAUGUUA,0.00136 ± 0.0057,0.000537 ± 0.0088,0.000343 ± 0.023,–
UCCUGGAUGUGCUUGCAUAGUAUGUAGUUA,0.00322 ± 0.0035,0.00399 ± 0.0022,0.00121 ± 0.0079,–
UCCUGGAUGUCGAACGUAUCUAAUUUGUUA,0.000176 ± 0.016,0.000535 ± 0.011,0.000163 ± 0.026,–
UCCUGGUACAGCUUGCAUAGAAUUUACUUA,0.00217 ± 0.0062,0.00101 ± 0.0035,< 0.0001,–

# Further entries:

Sequence,"pre-steady-state target cleavage rate [1, 3]","pre-steady-state target cleavage rate [2, 4]","pre-steady-state target cleavage rate [2, 5]","pre-steady-state target cleavage rate [1, 6]"
UCCUGGAUGUGCUUGCAUAGUAUUUAGUAUA,0.00202 ± 0.005,0.00507 ± 0.0027,0.000168 ± 0.073,–
UCCUCCUACAGGUUGCAUAGAAUUUAGUUA,0.00186 ± 0.0031,0.0062 ± 0.0014,0.00268 ± 0.004,–
UCCUGCUACAGCUUGCAUAGUAUAUACUUA,0.00139 ± 0.0053,0.00132 ± 0.0038,0.000552 ± 0.01,–
UCCUGGAACAGCUUGCAUAGUUUUAAGUUA,0.00203 ± 0.0036,0.00153 ± 0.0027,0.00123 ± 0.01,–
UCCUGCAUCAGCUUGCAUAGUAUUUACAAA,0.00108 ± 0.0053,0.00323 ± 0.0016,0.000351 ± 0.022,–
UCCUGGAACAGCUUGCAUAUAUUUAGUUA,0.00209 ± 0.0037,0.00191 ± 0.0025,0.00124 ± 0.0068,–
UCCUGCUACACCUUGCAUAGUAUUAAGUUA,0.00279 ± 0.0035,0.00618 ± 0.0036,0.000761 ± 0.0084,–
UCCUGCUACAGCUUGCAUAGUAUUUUAGUUA,–,0.00822 ± 0.0026,0.000505 ± 0.018,0.283 ± 0.023
UCCUGGUUCAGCUUGCAUAGUAUUUACAAA,0.0013 ± 0.0051,0.00195 ± 0.0034,0.000747 ± 0.01,–
UCCUGGAACAGCUUGCAUACUAUUUAGAAA,0.00115 ± 0.0042,0.00184 ± 0.0028,0.000211 ± 0.03,–
UCCUGCUACAGCUUGCAUACUAUUUUGUUA,0.00139 ± 0.0046,0.00432 ± 0.0019,0.000717 ± 0.011,–
UCCUGGAACAGCAUGCAUAGUAUUUUGUUA,0.00229 ± 0.003,0.00267 ± 0.0022,0.000412 ± 0.019,–
UCCUCCUACAGCUUGGAUAGAAUUUAGUUA,0.00181 ± 0.0034,0.00574 ± 0.0016,0.00128 ± 0.0054,–
UCCUGGAUCAGCAUGCAUAGUAUAUAGUUA,–,0.00329 ± 0.0028,0.00098 ± 0.01,0.297 ± 0.018
UCCUGGAACAGCAUGCAUAGUAUUUAGAUA,0.00207 ± 0.0035,0.00441 ± 0.0022,0.000411 ± 0.021,–
UCCUGGUACAGGUUGCUUAGUAUUUAGUUA,–,0.00576 ± 0.003,0.0016 ± 0.0073,0.328 ± 0.022
UCCUGGAACAGCUUGCAUACUAUUAAGUUA,0.000614 ± 0.0084,0.00246 ± 0.0024,0.000933 ± 0.008,–
UCCUGGAUGUGCUUGCAUAGAAUUUAGUAA,0.000958 ± 0.0066,0.00215 ± 0.0051,0.000253 ± 0.034,–
